Data reported in publication PMC5293159.
These are yes or no findings as the source states them, for the method shown. Some binding calls cover weakened binding; strength is not graded here.

Sequences of proteins named here, by UniProt entry; tags and fusion partners are left off.
UniProt Q15021: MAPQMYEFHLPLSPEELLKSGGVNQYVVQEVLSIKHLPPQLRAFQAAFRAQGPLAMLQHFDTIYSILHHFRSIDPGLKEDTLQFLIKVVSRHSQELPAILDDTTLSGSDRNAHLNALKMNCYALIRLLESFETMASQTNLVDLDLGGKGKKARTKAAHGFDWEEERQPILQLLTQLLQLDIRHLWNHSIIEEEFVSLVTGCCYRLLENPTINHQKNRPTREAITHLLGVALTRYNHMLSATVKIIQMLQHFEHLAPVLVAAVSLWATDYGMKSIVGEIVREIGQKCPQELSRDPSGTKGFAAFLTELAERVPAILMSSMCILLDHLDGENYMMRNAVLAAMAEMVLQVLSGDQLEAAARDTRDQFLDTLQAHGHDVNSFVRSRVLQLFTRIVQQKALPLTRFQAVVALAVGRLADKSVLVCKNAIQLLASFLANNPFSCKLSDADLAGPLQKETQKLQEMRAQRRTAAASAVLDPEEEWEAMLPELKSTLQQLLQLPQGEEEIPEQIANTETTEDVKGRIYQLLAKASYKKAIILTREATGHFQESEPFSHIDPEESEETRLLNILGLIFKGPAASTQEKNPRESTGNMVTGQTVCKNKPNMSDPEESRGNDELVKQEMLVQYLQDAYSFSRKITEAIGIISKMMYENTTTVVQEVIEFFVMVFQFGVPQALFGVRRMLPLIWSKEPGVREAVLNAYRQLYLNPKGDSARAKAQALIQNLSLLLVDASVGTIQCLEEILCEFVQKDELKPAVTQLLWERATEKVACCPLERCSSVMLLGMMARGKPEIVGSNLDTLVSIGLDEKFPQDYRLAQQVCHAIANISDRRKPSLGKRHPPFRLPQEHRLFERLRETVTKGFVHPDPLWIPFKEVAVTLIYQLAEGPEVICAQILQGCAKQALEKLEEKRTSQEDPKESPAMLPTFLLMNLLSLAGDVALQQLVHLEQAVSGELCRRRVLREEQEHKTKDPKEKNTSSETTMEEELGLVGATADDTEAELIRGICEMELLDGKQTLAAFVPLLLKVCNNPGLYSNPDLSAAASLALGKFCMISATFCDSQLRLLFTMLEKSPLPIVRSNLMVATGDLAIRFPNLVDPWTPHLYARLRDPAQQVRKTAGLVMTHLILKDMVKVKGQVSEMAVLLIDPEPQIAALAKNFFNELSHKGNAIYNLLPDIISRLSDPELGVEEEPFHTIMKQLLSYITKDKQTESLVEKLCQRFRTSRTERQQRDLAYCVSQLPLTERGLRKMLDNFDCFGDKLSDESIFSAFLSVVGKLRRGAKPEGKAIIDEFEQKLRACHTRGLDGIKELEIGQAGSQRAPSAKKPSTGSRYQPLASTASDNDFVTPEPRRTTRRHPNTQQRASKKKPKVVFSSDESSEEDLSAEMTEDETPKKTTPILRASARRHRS
UniProt Q15003: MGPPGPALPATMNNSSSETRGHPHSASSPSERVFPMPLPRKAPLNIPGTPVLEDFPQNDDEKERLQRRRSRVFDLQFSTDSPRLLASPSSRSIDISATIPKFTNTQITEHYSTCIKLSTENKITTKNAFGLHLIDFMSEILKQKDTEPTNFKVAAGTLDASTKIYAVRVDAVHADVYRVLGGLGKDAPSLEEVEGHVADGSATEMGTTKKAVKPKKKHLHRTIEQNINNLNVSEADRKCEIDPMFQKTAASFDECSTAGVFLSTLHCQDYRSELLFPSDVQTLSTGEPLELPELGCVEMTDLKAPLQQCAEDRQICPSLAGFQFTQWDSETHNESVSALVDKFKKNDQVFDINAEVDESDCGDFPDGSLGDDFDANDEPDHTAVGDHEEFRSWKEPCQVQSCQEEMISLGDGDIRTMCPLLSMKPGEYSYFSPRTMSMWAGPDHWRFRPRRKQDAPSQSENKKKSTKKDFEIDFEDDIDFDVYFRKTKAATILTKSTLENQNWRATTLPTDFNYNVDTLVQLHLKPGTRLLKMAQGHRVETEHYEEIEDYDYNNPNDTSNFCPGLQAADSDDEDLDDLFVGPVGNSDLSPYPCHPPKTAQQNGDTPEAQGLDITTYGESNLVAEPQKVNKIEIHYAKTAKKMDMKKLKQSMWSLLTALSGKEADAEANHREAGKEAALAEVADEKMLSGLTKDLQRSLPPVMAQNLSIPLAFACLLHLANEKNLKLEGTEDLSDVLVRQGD

Target: NCAPD2 (human (endogenous in Jurkat)) (UniProt Q15021)
Assay: SEC; SEC-PCP-SILAC: Jurkat cytoplasmic lysate (concentrated on 100,000 Da cutoff) on two BioSep4000 columns, 50 mM KCl, 50 mM NaCH3COO, pH 7.2, 8°C, fractions analysed by LC-MS/MS; interactions assigned from similarity of elution profiles; cells untreated or treated 4 h with anti-Fas IgM

binding: binds
Substance: NCAPH (from UniProt Q15003 1-741)
